In all, about 53,000 sequences went through this assay and about 3,700 (7%) were called active.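 Rule for the calls: active = gene knockdowns whose robust z-score for IL-1 alpha signal is at least 2 or at most -2, so actives lie on both sides; inactive = the rest.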 This is one part of the list.

Here are results for 68 sequences from PubChem BioAssay AID1508600 (Functional Genomics Laboratory (NCATS/FGL), 2020).

A short description of the experiment: Components of the Cytosolic LPS Sensing Pathway: Gene Identification via Genome-wide siRNA Screen.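 Note: robust z of the log signal after scaling to non-targeting control siRNA wells of the plate.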 The following applies: RAW264.7 macrophages, IL-1a HTRF, actives lie on both sides, screened at 100 nM (by protocol), cells primed 5 h with Pam3CSK4 first. In short, it runs like this: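 IL-1a HTRF of supernatants after 24 hour LipidA transfection of Pam3CSK4-primed (5 hours) RAW264.7 cells, 48h post-siRNA transfection (100 nM). Scores: percent of plate negative-control median, then log-based robust z-score.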
Regarding GGCAGUACUCUUCCUCACUTT against Tmem198, the z-score was inactive: -0.601. In the case of GCUAAUAAAGACGUAGCGUTT against Nup188, the z-score is inactive: -0.9. Consider GGUUGUGACAAUGUGAUCCTT against Coro1a, for which the z-score was active: -2.22. As to GGCGCAUAAUGGGAGAAGCTT against Alox5ap, the z-score is inactive: -0.283. The result for GGCAAUAACAUCCAUAUGUTT against Smyd4 reads inactive: -0.628; that for CGUAUGUGCCUUACAUGCUTT against Pomgnt2, inactive: 1.49; that for GGCAAUAUCCAGGAGACAGTT against Gkn2, inactive: 0.263. On to CCAUUCUGAUACUAAGCAATT against Tas2r134, for which the z-score is inactive: -0.125. GGACAGAAAUGUUUUUUGGTT against Robo4: the z-score was inactive: -0.271. The result for GGCCAGAGUCUGGUUGAAUTT against Entpd2 reads inactive: 1.35; that for CCCAUCUCUAUCUUGGCCGTT against Chpf, inactive: -0.105. The result for GCACAAGAUGUGAAGAUUATT against Tmem109 reads inactive: -0.639. The result for GCUAACAAAGAGCCUGGCATT against Trim46 reads inactive: -0.831; that for GGAAGAAGGUACAUUUCAGTT against Ankrd42, inactive: 0.362; that for GGCUUCUUCUACUUUCAAGTT against Slc27a5, inactive: -0.554. Regarding GGACAUUAUUCCAUCUAAGTT against Heatr3, the z-score is inactive: 0.994. The result for CGAAUACAUCAUGUCAAAATT against Chek2 reads inactive: 0.929; that for CCGCCUUUCUGUGAGAUGCTT against Rbm11, inactive: -0.635. The result for GGCCUGCAUGGAACAAAUGTT against Rxfp4 reads inactive: -0.404; that for GCGAAGUGCCUGCUAUUCUTT against Cc2d1b, inactive: 1.16; that for CCUAGGUUUGAAGACUCCCTT against Asphd2, active: -2.03. As for GCCGUGCAACACUUCUACATT against Esrrb, the z-score is inactive: -0.471.

For the sequence GGAACAUGGAGAAUGUCUATT against Iqca, the z-score is inactive: 0.733. For GGGAAGAAGAGAUUCUGAUTT against Cep250, the z-score was inactive: -1.53. The result for CGCGUAUCUGACCAGGUCATT against Ermard reads inactive: 0.889; that for GGAACUAUUUUUUACCCAATT against Dclre1a, inactive: -0.497. Regarding GGAGCUCACCACAUCCCUATT against Rundc3a, the z-score is inactive: -0.206. The result for GGUCUUACAUCUGGUUUCCTT against Rapgef5 reads inactive: -0.181; that for GGUGUAUCAGAGGCAGAUUTT against AY358078, inactive: -0.719; that for GGGAAAUCAGUUUUACAAATT against Chl1, inactive: 0.265. The result for GCUUGAGUUGGACCUUCACTT against Tchp reads inactive: 0.547; that for GGCAUCCUGUUGAAACUGATT against Vezt, inactive: -0.962. The result for GGAGGAGGAGACCAUCAUGTT against Dpf1 reads inactive: -0.988; that for GGAAAUGAGGAUGAGGUCCTT against Iyd, inactive: 2. For the sequence CGGAUGUGGGCAUUCGUUATT against Fbxl7, the z-score was inactive: 0.421. The value for GCUGAAGUCUCUUCAAUGCTT against Trappc6b was inactive: -0.71; that for CCUCACCGUAGUGAUGUUGTT against Olfr257 was inactive: 0.41; that for CGAUCAUCGGCAUGUAUACTT against Gm5134 was inactive: 0.233.

As for GGAAACAUUUGUCUUUUGCTT against Eif2b5, the z-score was inactive: 0.428. The result for GCGGUCUAAGUCCUUUAGCTT against Limd2 reads inactive: 1.09. As to GCUCACUGCUACAAAUACCTT against Prss2, the z-score was inactive: -1.82.

For GGCUUAGUCAGUUCUCUCGTT against Sdf2, the z-score was inactive: 0.447.

In the case of CGGCCUCCAUGUUAAGAUATT against Csf2rb2, the z-score is inactive: -0.249.

For the sequence CGUGUCAUACAGGUGUGGUTT against Lhx8, the z-score was active: 2.11.

In the case of CGGCAACUUUCUGAACAUCTT against Nfix, the z-score is inactive: 0.204.

Regarding CGUAGGUUCCUCUUACAUGTT against Alkbh8, the z-score was inactive: 0.161. Regarding CCUAUUACUCUCAAGGUUCTT against Tti2, the z-score is inactive: 0.245. Regarding GGAGAACAGCAGCCUUUGUTT against Ankrd13a, the z-score was inactive: -0.0756.

Take GCACAGAUUCCAUUAAAGATT against Rhbdl3: the z-score is inactive: 0.168. GGAGAGAUAUCUUUGGUGGTT against Slc27a4: the z-score was inactive: 0.389. The value for GGCUGAAAGUGAAGAAACGTT against Srp68 was active: -2.11; that for GCUGCUCAAGUUGUGGUGATT against Sord was inactive: 1.56. For GGAGGAAGUGAACAAAAUGTT against Afp, the z-score is inactive: -0.701. In the case of GGGUAUACGGCAUUUCCUATT against Rad9b, the z-score was inactive: -0.983. Turning to GGCAAUCUUAUACUUAUGCTT against Mmachc, the z-score was inactive: 0.307. The result for GGCCUGAUGGAAUUAUAGATT against Wdr31 reads inactive: -0.278; that for GCACGAAAUCAGCAAUGAATT against Tmc8, inactive: -1.08; that for GGUGGCAGACAUUUCAACATT against Ifi27, inactive: 1.54.

Turning to GGUACAGAGAUCUAAGACUTT against Opn4, the z-score was inactive: 1.17.

For the sequence UGAAGGCAAAUCACUCUUUTT against Olfr181, the z-score was inactive: -0.042. CGAAAGGUUUAUCUGUUAGTT against Pwp1: the z-score is inactive: -1.08. The result for CCAGAGAUUCCAACUUAAATT against Tcp11l1 reads inactive: -0.398; that for GGCCAAUAAAGACUGGUUUTT against Rps15, inactive: 1.69. The result for UAACUGGGCUCACGUUGACTT against Pou2f1 reads inactive: 0.47.

Consider CCAAUUCUCGAAUCAUUGCTT against Olfr561, for which the z-score is inactive: 1.36.

For the sequence GGUCAAUUUUAGAGAGAUCTT against Eloc, the z-score is inactive: 0.0886. The value for GGCUAUUUGAGAACAGGCATT against Cxcl13 was inactive: 0.00725; that for GGAGAUUCUUUCUUUGAUGTT against Cep43 was inactive: -0.724.
